# Measured values reported in PubChem BioAssay AID588497 (NMMLSC, 2011).
# The whole screen tested about 360,000 compounds, of which about 780 (0.22%) were called active. Inconclusive results, whose numbers are uncertain, are shown with a selection of clear calls. Cut-off read from the data, not from the text of the source: active = inhibition above about 35% (passing the limit was not always enough); inconclusive = no clear call, values can overlap the other calls.
# Tested on: Botulinum neurotoxin type F light chain protease (Clostridium botulinum)
# Experiment: BoNT/F light chain protease inhibitors, primary screen, biochemical, flow cytometry, MLPCN library (AID 588497); note: plate controls were buffer without enzyme for full effect and enzyme alone for no effect
# Conditions: Multiplex microsphere protease cleavage assay, at 10 µM, hits give high values
row,Compound,inhibition
1,Cc1ccc2nc(SC(C(=O)c3ccccc3)c3ccccc3)nc(C)c2c1 (configuration not stated),inactive: -0.8%
2,Cc1ccc(C(=O)N/N=C\c2ccc(-c3ccc([N+](=O)[O-])cc3)o2)cn1,inconclusive: 89.9%
3,COc1ccc(C2CC(c3cccc([N+](=O)[O-])c3)=NN2/C(C)=C/C(C)=O)cc1 (configuration not stated),active: 77%
4,C=CCN1CCN(C(=O)CCCc2ccccc2)CC1,inconclusive: -38.9%
5,COc1ccc(/C=N/OC(=O)Nc2ccc(Cl)cc2)c(OC)c1,inconclusive: -31.7%
6,Cc1cnc(NC(=O)Cc2cccs2)s1,inactive: -1.6%
7,COc1ccc(CCNC(=O)C2C3CCC(C3)C2C(=O)O)cc1OC (configuration not stated),inconclusive: 11.6%
8,CCOC(=O)c1ccc(N=C(C)c2c(O)[nH]c(=O)[nH]c2=O)cc1,inconclusive: -12.8%
9,COc1ccccc1N(C(=O)c1snc(C(N)=O)c1N)C(C(=O)NC1CCCC1)c1ccc(N(C)C)cc1 (configuration not stated),inactive: -12.1%
10,OCC1OC(n2cnc3cc(Cl)c(Cl)cc32)C(O)C1O (configuration not stated),inactive: 2.3%
11,CC(C)N1CC(C(=O)Nc2ccc(Cl)c(Cl)c2)CC1=O (configuration not stated),inconclusive: -20.9%
12,O=C(CCC1CCCCC1)Nc1ccccc1O,inactive: -0.4%
13,Fc1ccc(NC(=S)N2CCCN(c3ccc(C(F)(F)F)cn3)CC2)c(F)c1,inconclusive: -42.4%
14,O=C(O)c1ccc(NC(=O)c2cccc(S(=O)(=O)Nc3ccc(C(=O)O)cc3)c2)cc1,active: 39%
15,O=S(=O)(c1ccc(F)cc1)N1CCc2ccccc2C1,inconclusive: -6.9%
16,O=C1/C(=C/c2cccs2)N=C(c2cccs2)N1Nc1ccccc1,inactive: -0.1%
17,COc1ccccc1OCC(O)CNCc1ccc2c(c1)OCO2 (configuration not stated),inconclusive: 62.8%
18,O=C(CSc1nnc(C2CCCCC2)o1)Nc1ccccc1Cl,inactive: 10.3%
19,CC(=O)Nc1ccc(NC(=O)C(Sc2ccccc2)c2ccccc2)cc1 (configuration not stated),inconclusive: 19.7%
20,C=CCn1c(O)c(C(C)=NCc2ccc3c(c2)OCO3)c(=O)[nH]c1=O,inconclusive: 31.5%
21,O=c1nc(-c2ccccc2)nc(-c2ccccc2)[nH]1,inconclusive: 32.5%
22,CN(C)NC(=S)Nc1cccc(C(F)(F)F)c1,inconclusive: -58.6%
23,Cc1c(C#N)c2ccccc2n1CC(=O)N1CCCC1,inactive: -6.4%

row,Compound,inhibition
1,COC(=O)c1ccc(CO/N=C/c2cccc([N+](=O)[O-])c2)cc1,inconclusive: 10%
2,COc1ccc([C@H]2/C=C\CN(C(=O)c3ccccc3)[C@@H](C)C(=O)N2Cc2ccc(F)cc2)cc1,inactive: 5.4%
3,O=c1[nH]c(=S)n(CCC2=CCCCC2)c(O)c1/C=N/N1CCOCC1,inconclusive: 12.7%
4,CCOc1ccc(NC(=O)COC(=O)c2cc(C)oc2C)cc1,inactive: -10.2%
5,CC1=C(C(=O)N2CCOCC2)CC(CC(=O)NCCN2CCOCC2)C(=O)N1Cc1ccccc1 (configuration not stated),inactive: -4.5%
6,O=C(O)C1CCCCC1C(=O)NCCCn1ccnc1 (configuration not stated),inactive: 0%
7,CC1(c2ccco2)NC(=O)NC1=O (configuration not stated),inconclusive: -37.8%
8,COc1ccc(-c2csc(N(CCCN(C)C)C(=O)c3ccccc3F)n2)cc1,inconclusive: 24.7%
9,COCCn1nc2cc(C(=O)NCc3cc(C(F)(F)F)cc(C(F)(F)F)c3)ccc2c1OC,inactive: -5.2%
10,CCN1CCN(CC(=O)N/N=C/c2cc(Br)cs2)CC1,inconclusive: -11.1%
11,Cc1ccc(NC(=O)C2CCCN(c3ncccn3)C2)c(C)c1 (configuration not stated),inactive: -2.9%
12,CCc1nnc(NS(=O)(=O)c2ccc(N/C=C\C(=O)c3ccc(C)cc3)cc2)s1,inconclusive: 1.8%
13,CC(C)c1ccc(-c2csc3nc[nH]c(=O)c23)cc1,inconclusive: 15%
14,O=S(=O)(CCN1CCCCC1)Oc1ccc(Cl)cc1Cl,inactive: -8.8%
15,COc1ccc(C(=O)Nc2cc3c(cc2C#N)OCO3)cc1S(=O)(=O)NCc1ccco1,inconclusive: -33.4%
16,Cc1cccc2c1NC(=O)/C2=C\C(=O)c1cccs1,inactive: -5.3%
17,C=C(C)CSc1nnc(CCCCCNC(=O)OC(C)(C)C)o1,inconclusive: 49.5%
18,Cc1cccc(-n2c(C)cc(/C=N/NC(=O)c3ccc(CN4CCOCC4)cc3)c2C)c1,inactive: -9.3%
19,CCOC(=O)c1ccc(Oc2cn[nH]c2-c2ccc(OCC(=O)NN)cc2O)cc1,inconclusive: -3.7%
20,O=C(C[n+]1cccc2ccccc21)c1ccc(Br)cc1,inconclusive: -11.7%
21,CC1(C)C[C@@H]2C[C@@](C)(CN2C(=O)c2ccccc2)C1,inconclusive: -12.4%
22,Cc1nc2ccc(S(=O)(=O)CCC(=O)NCc3ccc(Cl)cc3)cc2s1,inactive: 3.3%
23,Cc1ccc2c(N)c(C)ccc2c1,inactive: 12.3%

row,Compound,inhibition
1,CCCCOC(=O)CSc1nnc(-c2cc(OC)c(OC)c(OC)c2)o1,inconclusive: 1.5%
2,O=C(c1ccc(F)cc1Cl)N1CCC2(CC1)OCCO2,inconclusive: 8.5%
3,COC(=O)c1ccc(C(=O)OC)c(NC(=O)C2CCCO2)c1 (configuration not stated),inconclusive: -14.9%
4,Cc1cc(NC(=O)CSc2nnc(-c3cccnc3)n2N)no1,inactive: 1.2%
5,CCOc1ccccc1C(=O)N(Cc1ccc(C)o1)C1CCS(=O)(=O)C1 (configuration not stated),inactive: -1.8%
6,CCCCCCCCCCCCN1C(=O)CSC1c1cccnc1 (configuration not stated),inconclusive: 2.8%
7,c1ccc(CN2CCN(Cc3c[nH]c4ccccc34)CC2)cc1,inconclusive: 36.5%
8,CC(C)c1ccc(CCNC(=O)CSC(=S)N2CCCC2)cc1,inconclusive: -93.5%
9,Cn1nc(C(C)(C)C)c(NC(=O)c2cccs2)c1C(C)(C)C,inconclusive: -103%
10,Cc1ccc(SCC(=O)Nc2nncs2)cc1,inconclusive: 72.2%
11,O=C(NCc1ccco1)c1cc2c(s1)CCCCC2,inactive: 12.6%
12,COc1cc(C(=S)N2CCOCC2)cc(OC)c1OS(=O)(=O)c1ccc(C)cc1,inconclusive: 36.1%
13,COc1cccc(-n2c(=O)n(Cc3ccccc3)c(=O)c3[nH]cnc32)c1C,inconclusive: -30.4%
14,Cc1ccc(C(C(=O)NC(C)(C)C)N(CC2CCCO2)C(=O)CCC(=O)Nc2ccccn2)cc1 (configuration not stated),inactive: 1.1%
15,Cc1ccc(SCCN2CCN(Cc3ccccc3)CC2)cc1,inconclusive: -55.2%
16,CSCCC(NC(=O)c1cccc(C)c1)C(=O)OCN1C(=O)c2ccccc2C1=O (configuration not stated),inconclusive: 4.2%
17,CCCCCN(C(=O)CCC(=O)OCC(=O)NC1CCC(C)CC1)c1c(N)n(CCCC)c(=O)[nH]c1=O (configuration not stated),inconclusive: 7.3%
18,COC(=O)c1c(C)[nH]c(C(=O)/C=C/c2ccccc2F)c1C,inconclusive: 77.4%
19,O=C(CCN1CCOCC1)c1ccc(Br)cc1,active: 40.3%
20,Cc1ccc(NC(=S)NCc2ccc(F)cc2)c(C)c1,inconclusive: -47.3%
21,O=c1oc2ccccc2n1Cc1cccc(Cl)c1,inconclusive: 24.5%
22,Cn1c(=O)c2c(ncn2CCC(=O)N/N=C/c2ccncc2)n(C)c1=O,inconclusive: -32.8%
23,COc1cc(/C=C/c2[nH]c(=O)[nH]c(=O)c2[N+](=O)[O-])cc(OC)c1O,inconclusive: -23.9%

# By substructure, the entries above containing a thiophene ring, fused or not.
row,Compound,inhibition
6,Cc1cnc(NC(=O)Cc2cccs2)s1,inactive: -1.6%
16,O=C1/C(=C/c2cccs2)N=C(c2cccs2)N1Nc1ccccc1,inactive: -0.1%
10,CCN1CCN(CC(=O)N/N=C/c2cc(Br)cs2)CC1,inconclusive: -11.1%
13,CC(C)c1ccc(-c2csc3nc[nH]c(=O)c23)cc1,inconclusive: 15%
16,Cc1cccc2c1NC(=O)/C2=C\C(=O)c1cccs1,inactive: -5.3%
9,Cn1nc(C(C)(C)C)c(NC(=O)c2cccs2)c1C(C)(C)C,inconclusive: -103%
11,O=C(NCc1ccco1)c1cc2c(s1)CCCCC2,inactive: 12.6%

# Of the compounds above, these contain a cyano group.
row,Compound,inhibition
23,Cc1c(C#N)c2ccccc2n1CC(=O)N1CCCC1,inactive: -6.4%
15,COc1ccc(C(=O)Nc2cc3c(cc2C#N)OCO3)cc1S(=O)(=O)NCc1ccco1,inconclusive: -33.4%

# Additional records

row,Compound,inhibition
1,CCOc1ccc(/C=C2/SC(=S)N(CCC(=O)Nc3ccc(C(=O)O)cc3)C2=O)cc1,inconclusive: -0.2%
2,CC(=NNC(=S)N1CC2CCC(CC2)C1)c1nccs1,inactive: 31%
3,C/C(=N\NC(=O)c1nnn(-c2nonc2N)c1COc1ccc(F)cc1)c1ccc(Cl)cc1,inconclusive: 25.1%
4,Cc1cccc[n+]1CC(=O)c1ccc([N+](=O)[O-])cc1,inconclusive: 29.6%
5,CCOc1ccccc1NC(=S)N(Cc1cc2ccc(C)cc2[nH]c1=O)CC1CCCN1CC (configuration not stated),inactive: 5.4%
6,COc1ccc(OC)c(C(=O)N(C)C2CCCN(Cc3ccccc3F)C2)c1 (configuration not stated),inconclusive: -15.2%
7,O=C(Nc1c[nH]c(=O)[nH]c1=O)c1ccccc1Br,inconclusive: 15.7%
8,CCOc1ccccc1CNC(=O)Cn1ccc2cc(S(=O)(=O)N3CCCC3)ccc21,inactive: -8.2%
9,O=C(Nc1ccc2c(c1)OCCO2)c1cccc(Br)c1,inconclusive: 1%
10,CCCOc1ccccc1C(=O)NC(CO)C(=O)O (configuration not stated),inconclusive: -13.8%
11,CC1=NN(c2ccccc2)C(=O)/C1=C\c1sccc1C,inconclusive: 3.1%
12,CC1CCCCC1NC(=O)C1CCC(CNS(=O)(=O)c2ccccc2)CC1 (configuration not stated),inconclusive: -3%
13,CN1Cc2c(N3CCOCC3)nc3sc(C#N)c(N)c3c2CC1(C)C,inconclusive: 99.6%
14,COc1ccc(N2CC(C(=O)Nc3cccc(OC(C)C)c3)CC2=O)cc1 (configuration not stated),inactive: 7.8%
15,CCc1cc(C(=O)Nc2cc(S(=O)(=O)N3CCCCC3)ccc2N2CCN(C)CC2)sc1C,inactive: -3.4%
16,CCOc1ncccc1C(=O)Oc1ccc2c(c1)OCO2,inconclusive: -2.9%
17,CN1C(=O)CSC1=Nc1ccc(F)cc1,inconclusive: 15.9%
18,Cn1c(=O)c2c([nH]c(OCc3ccc(Cl)cc3Cl)[n+]2Cc2ccc(F)cc2)n(C)c1=O,inconclusive: -10.7%
19,COCCNC(=O)c1ccc(N2CC3CC(C2)c2cccc(=O)n2C3)c(NC(=O)c2ccccc2Br)c1 (configuration not stated),inactive: -0.6%
20,COc1ccc(-c2cc(C(=O)NC3CCCC3)no2)cc1,inactive: 14%
21,Cc1noc(C)c1CN(C(=S)NC1CC2CCC1C2)c1ccccc1 (configuration not stated),active: 42.1%
22,CCOC(=O)Cc1csc(NS(=O)(=O)c2ccc(NC(C)=O)cc2)n1,inconclusive: -3%
23,O=C(CCC(=O)N1CCN(c2ccccc2)CC1)Nc1nnc(C2CCCCC2)s1,inconclusive: 1.4%
